Results from patent US20220242904A1.
These are yes or no findings as the source states them, for the method shown. For part of these data: Binding calls can cover weak binding; strength is not graded here.

Columns and labels:
[1] = biological target: type I collagen; experiment: slot blot, peptide (5-100 µg/mL) on NC membrane, 1% collagen solution added
[2] = biological target: type IV collagen; experiment: condition: peptide tested at 5, 10, 25, 50, and 100 µg/mL; slot blot, peptide on NC membrane, 1% collagen solution added
[3] = biological target: type IV collagen; experiment: slot blot, peptide (5-100 µg/mL) on NC membrane, 1% collagen solution added

| binding [1] | binding [2] | binding [3] | Binder |
| --- | --- | --- | --- |
| binds | no binding | – | RPRYYLYKHAYFYPHLKRFP [peptide of SEQ ID NO: 2 (Human bone sialoprotein II 41-60)] |
| binds | no binding | – | LTEFPLRMRDWLKN [peptide of SEQ ID NO: 3 (Human osteonectin 160-173)] |
| binds | – | binds | YGLRSKSKKFRRPDIQYPDAT [peptide of SEQ ID NO: 1 (Human bone sialoprotein I 149-169)] |
